Experimental data as given in publication PMC4516353.
No constants are given. Whether binding was seen depends on the method and setting. Binding seen in cells or lysates may run through a third protein. Some results given as binding are weak or reduced against the parent protein; the word gives no strength. Where a sequence is shown, tags or fusion partners need not be part of it.

How the values were obtained:
TRMT112-E2Tag (human) = biological target: T1, TRMT112-E2Tag (human) (UniProt Q9UI30); test: co-IP; HeLa cells electroporated with 1000 ng of pQM plasmids, collected 24 h later; immunoprecipitation with anti-E2Tag antibody 5E11; immunoblot for WBSCR22 and TRMT112
T1 sequence: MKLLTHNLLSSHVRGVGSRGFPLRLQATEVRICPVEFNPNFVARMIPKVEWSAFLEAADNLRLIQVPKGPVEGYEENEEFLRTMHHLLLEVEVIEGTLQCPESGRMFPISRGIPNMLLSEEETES

[1] = biological target: T2, E2Tag-WBSCR22 (stably expressed in U2OS cells) (human) (UniProt O43709); test: co-IP; U2OS and U2OS-E2Tag-WBSCR22 cell lysates, immunoprecipitation with antibody against E2Tag, immunoblot with antibodies against WBSCR22, TRMT112 and C1QBP
T2 sequence: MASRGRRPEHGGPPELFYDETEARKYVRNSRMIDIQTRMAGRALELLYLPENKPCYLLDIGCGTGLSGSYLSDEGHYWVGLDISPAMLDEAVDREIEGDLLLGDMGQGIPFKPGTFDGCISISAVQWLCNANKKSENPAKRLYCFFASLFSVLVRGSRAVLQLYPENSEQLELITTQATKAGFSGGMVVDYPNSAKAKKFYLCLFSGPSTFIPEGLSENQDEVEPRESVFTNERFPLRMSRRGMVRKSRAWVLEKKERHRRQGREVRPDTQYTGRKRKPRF

[2] = biological target: T3, E2Tag-WBSCR22 (transiently expressed in HeLa cells) (human) (UniProt O43709); test: co-IP; HeLa cells electroporated with 1000 ng of pQM plasmids, collected 24 h later; immunoprecipitation with anti-E2Tag antibody 5E11; immunoblot for WBSCR22 and TRMT112
T3 sequence: T2 sequence

B1: WBSCR22 (endogenous, HeLa cells) (protein, UniProt O43709 1-281)
chain: T2 sequence
binding (TRMT112-E2Tag (human)): binds

B2: TRMT112 (endogenous, U2OS cells) (protein, UniProt Q9UI30 1-125)
chain: T1 sequence
binding [1]: binds

B3: TRMT112 (endogenous, HeLa cells) (protein, UniProt Q9UI30 1-125)
chain: T1 sequence
binding [2]: binds
